Experimental data from PubChem BioAssay AID540276 (National Center for Advancing Translational Sciences (NCATS), 2011).
Several values for one entry are separate records, joined by “and”; a condition that tells them apart may be missing. Identical values can stand only once. Hit rate of the full screen: of about 300,000 compounds, about 5,400 (1.8%) were called active. This list was built around the results that the source calls inconclusive (neither active nor inactive); the mix of calls is not that of the screen. The call rests on the fitted dose curve; tested in HEK293 cells. Where the call is inconclusive, the potency comes from a doubtful curve fit. Residues, ends and D or L forms follow the SMILES beside them. *: point of attachment. Boc = CC(C)(C)OC(=O)*; OtBu = CC(C)(C)O*

assay: qHTS for inhibitors of binding or entry into cells for Marburg Virus; settings: Marburg virus pseudotyped entry inhibition, cell reporter; activity change, negative = inhibition: at 37.8 µM (top of the series) unless noted
On the % scale 0 is the no-effect control and ±100 the full control effect; potency means the concentration at half of the fitted maximal effect.

| Structure (SMILES) | Potency | activity change, negative = inhibition |
| --- | --- | --- |
| Brc1ccc(-c2cn3cc(Cc4ccccc4)sc3n2)cc1 | inconclusive: 10 µM [activator, partial curve, poor fit] |  |
| Cc1c(NC(=O)c2cc(-c3ccc(F)cc3)nc3ccccc23)c(=O)n(-c2ccccc2)n1C | inconclusive: 22.4 µM [inhibitor, single point] |  |
| COc1cc(C2N(C)CCC3(OCCO3)C2(C)C)cc(OC)c1OC (stereo unspecified) | inconclusive: 14.1 µM [inhibitor, single point] |  |
| CC(C)=C1C2CCC1C1C(=O)N(c3nc(-c4ccccc4)c(C)s3)C(=O)C21 (stereo unspecified) | inconclusive: 0.112 µM [inhibitor, full curve, poor fit] |  |
| Cc1cccc(CSc2nnnn2-c2ccccc2)c1 | inconclusive: 12.6 µM [inhibitor, partial curve, poor fit] |  |
| O=C(N/C(=C/c1ccccc1Cl)C(=O)N1CCCCC1)c1ccco1 |  | inactive: -28.9% |
| COc1ccc(C=NNc2nc3c([nH]2)c(=O)n(C)c(=O)n3C)cc1 | inconclusive: 35.5 µM [inhibitor, single point] |  |
| O=C(c1cccs1)c1ccc(-c2cccs2)s1 | active: 11.2 µM |  |
| Fc1ccc(-c2cnc[nH]2)cc1 | inconclusive: 11.2 µM [activator, partial curve, poor fit] |  |
| Cc1nc(NC(=S)NC(=O)c2ccccc2)sc1C |  | inactive: 1.46% |
| Cc1cc(C)c2c(N)c(C(=O)c3ccc(Cl)cc3Cl)sc2n1 | inconclusive: 5.01 µM [inhibitor, partial curve, poor fit] |  |
| Cc1cccc(NC(=O)c2ccc(S(=O)(=O)N3CCC(C)CC3)cc2)n1 | inconclusive: 1.12 µM [inhibitor, full curve, poor fit] |  |
| Cc1ccc(-n2ncc(C(=O)NCC3CCN(C4CCCC4)C3)c2C2CCN(C(=O)OC(C)(C)C)CC2)cc1C (stereo unspecified) | inconclusive: 10 µM [inhibitor, partial curve, poor fit] |  |
| O=C(COc1cccnc1[N+](=O)[O-])c1ccc(Cl)s1 |  | inactive: -2.04% |
| COc1ccc(Nc2ncc(C(=O)Nc3cccc(OC)c3)c3ccccc23)cc1 |  | inactive: -1.92% [at 46.1 µM] |
| CC(NC(=O)C(CC(=O)OC(C)(C)C)NC(=O)OC(C)(C)C)C(N)=O (stereo unspecified) (Boc-Asp(OtBu)-Ala-NH2; configuration not given here) | inconclusive: 32.6 µM [activator, single point] |  |
| CCN(CC)C(=O)c1ccc(NC(=O)COc2ccc([N+](=O)[O-])cc2Cl)cc1 | inconclusive: 0.316 µM [activator, partial curve, poor fit] |  |
| CN(CC(=O)O/N=C(\N)c1ccccn1)S(=O)(=O)c1ccccc1 |  | inactive: 2.03% |
| O=C(CN1CCN(C2CCCCC2)CC1)Nc1ccccc1-c1ccccc1 | inconclusive: 25.9 µM [inhibitor, partial curve, poor fit] |  |
| Cc1ccc(C)c(C(=O)CC2(O)C(=O)N(C)c3ccccc32)c1 (stereo unspecified) | inconclusive: 14.6 µM [activator, partial curve, poor fit] |  |
| O=C(OCC(=O)C12CC3CC(CC(C3)C1)C2)c1cccnc1 | inconclusive: 3.98 µM [activator, full curve, poor fit] |  |
| O=C(COC(=O)c1ccccc1O)Nc1ncc(Cl)cc1Cl |  | inactive: -7.08% [at 46.1 µM] |

| Structure (SMILES) | Potency | activity change, negative = inhibition |
| --- | --- | --- |
| COc1ccc(CC(=O)O/N=C(\N)c2ccccc2)cc1OC | inconclusive: 35.5 µM [inhibitor, single point] |  |
| CCOc1ncccc1C(=O)OCC(=O)Nc1cc(S(=O)(=O)N2CCCCC2)ccc1Cl | inconclusive: 0.316 µM [activator, partial curve, poor fit] |  |
| CCN1CCN(C(=O)c2c(-c3c(Cl)cccc3Cl)noc2C)CC1 | inconclusive: 5.62 µM [inhibitor, single point] |  |
| Cc1cc2c(nc1C)CCCN2C[C@@H](C)O/N=C1/[C@H]2CCn3c(=O)n(-c4ccccc4)c(=O)n3[C@H]2[C@H](O)[C@@H]2O[C@H]12 |  | inactive: -38.9% |
| COc1ccc(Cn2c(CCC(=O)Nc3cc(C)cc(C)c3)nc3cccnc32)cc1 | inconclusive: 3.16 µM [activator, single point] |  |
| CC(=O)Nc1nc2ccc(C(=O)NC3CCCCC3)cc2s1 |  | inactive: -8.04% |
| COc1ccc(CNc2nc(-c3ccccc3)nc3ccccc23)cc1OC | inconclusive: 17.8 µM [inhibitor, partial curve, poor fit] |  |
| COC(=O)c1[nH]c2cc(C)ccc2c1NC(=O)CN1CCc2cc(OC)c(OC)cc2C1 | inconclusive: 35.5 µM [inhibitor, single point] |  |
| C=CCn1c(SCc2cc(C(C)=O)ccc2OCC)nc2ccccc2c1=O | inconclusive: 0.164 µM [inhibitor, full curve] |  |
| CN1CCN(Cc2nc(-c3cccs3)no2)CC1c1ccccc1 (stereo unspecified) |  | inactive: 4.37% [at 46.1 µM] |
| COc1ccc(C2N=C(N)N=C(N)N2c2ccc(C)cc2)cc1 (stereo unspecified) |  | inactive: -18.8% |
| COc1ccc(C2(C)NC(=O)N(CC(=O)c3cc(C)n(C4CC4)c3C)C2=O)cc1OC (stereo unspecified) | inconclusive: 35.5 µM [inhibitor, single point] |  |
| N#Cc1ccc(-c2ccc(F)cc2)nc1Oc1ccc(F)cc1 | inconclusive: 11.6 µM [inhibitor, partial curve] |  |
| CCCCn1c(-c2csc(C(C)C)c2)n[nH]c1=S | inconclusive: 28.2 µM [activator, single point] |  |
| COc1ccc(NC(=O)c2ccco2)cc1NC(=O)c1cccc(C)c1OC | inconclusive: 20 µM [inhibitor, partial curve, poor fit] |  |
| Oc1cccc(/C=N/N2CCN(c3ccccn3)CC2)c1 | inconclusive: 2.82 µM [activator, single point] |  |
| C/C(=N/NC(=O)CNC(=O)c1ccncc1)c1ccco1 |  | inactive: -10.7% [at 46.1 µM] |
| Cc1cccc(C)c1NC(=O)CSc1nnc(-c2ccccc2)n1Cc1ccc2c(c1)OCO2 | inconclusive: 18.3 µM [inhibitor, single point] |  |
| CC(C)Oc1ccc(CSc2ncn[nH]2)cc1 | inconclusive: 10 µM [inhibitor, partial curve, poor fit] |  |
| Cc1ccc(SCC(=O)Nc2ccc(O)c(-c3nc4cc(C)ccc4o3)c2)cc1 | inconclusive: 6.31 µM [activator, partial curve, poor fit] |  |
| Cc1ccc(NC(=O)NC(C)c2c(-n3cccc3)sc(C)c2C)c(C)c1 (stereo unspecified) | active: 11.2 µM |  |
| Cc1cc(O)c(C(C[N+](=O)[O-])c2ccc(Cl)cc2)c(=O)o1 (stereo unspecified) |  | inactive: 0.311% |

| Structure (SMILES) | Potency | activity change, negative = inhibition |
| --- | --- | --- |
| N[C@@H](Cc1cc(Br)c(O)c(Br)c1)C(=O)O | inactive |  |
| CC(C)c1ccc(NC(=S)NC2CCN(Cc3ccccc3)CC2)cc1 | inconclusive: 17.8 µM [inhibitor, partial curve, poor fit] |  |
| Cc1ccc2c(C)nc(/N=C(\N)NC(=O)N3c4ccccc4Sc4ccccc43)nc2c1 | inconclusive: 1.26 µM [inhibitor, single point] |  |
| Cc1[nH]c2c(C(=O)N3CCCC(CCC(=O)NCc4ccccc4F)C3)cccc2c1C (stereo unspecified) | inconclusive: 11.2 µM [inhibitor, single point] |  |
| COc1ccc(/C=C2/SC(=O)N(CCNC(=O)CC(NC(C)=O)c3ccccc3)C2=O)cc1 (stereo unspecified) | inconclusive: 35.5 µM [activator, single point] |  |
| CC1=CC2=NC(=O)/C(=C\c3ccc(-c4ccc(Cl)cc4)o3)C(=N)N2O1 |  | inactive: 19.5% |
| Nc1ccc2nc(SCc3cccc(F)c3)sc2c1 | inconclusive: 1.26 µM [activator, partial curve, poor fit] |  |
| Cc1cccc(NC(=O)C(=O)NCCc2c[nH]c3ccccc23)c1C | inconclusive: 15.8 µM [inhibitor, partial curve, poor fit] |  |
| O=C(O)CC(=O)Nc1ccc(Oc2ccc(C(F)(F)F)cn2)c(Cl)c1 |  | inactive: 6.04% [at 46.1 µM] |
| CCSc1nnc(NC(=O)c2cc(C)oc2C)s1 |  | inactive: 29.1% |
| Cc1ccc(N2C(=O)c3cccc4c(N5CCN(C)CC5)ccc(c34)C2=O)c2cccnc12 | inconclusive: 5.17 µM [inhibitor, full curve] |  |
| NC(=S)N=Nc1c(O)n(Cc2ccccc2)c2ccccc12 |  | inactive: -16.5% |
| COc1ccc(CCN2C(=O)c3ccccc3NC2c2cc(Cl)c(O)c(OC)c2)cc1 (stereo unspecified) | inconclusive: 0.891 µM [inhibitor, full curve] |  |
| Cc1ccc(CNC(=O)C(=O)c2cn(CC(=O)N3CCCC3)c3ccccc23)cc1 |  | inactive: -19.2% |
| COC(=O)CN(c1ccccc1[N+](=O)[O-])S(=O)(=O)c1ccccc1 |  | inactive: -12.1% [at 46.1 µM] |
| Cc1ccccc1-c1nc(CS(=O)(=O)CC(=O)NCCCN2CCN(C)CC2)c(C)o1 | inactive and inconclusive: 7.94 µM [inhibitor, single point] |  |
| Cc1cccc(/C=C2\Oc3cc(OS(C)(=O)=O)ccc3C2=O)c1 | inconclusive: 22.4 µM [activator, partial curve, poor fit] |  |
| Cc1ccsc1C(=O)OCC(=O)N1CCOCC1 | inconclusive: 35.5 µM [activator, single point] |  |
| CC(=O)Nc1ccc(S(=O)(=O)Nc2ccc(Cc3ccncc3)cc2)cc1 | inconclusive: 8.91 µM [inhibitor, partial curve, poor fit] |  |
| CCn1c(SCC(=O)NCCc2ccccc2)nc2sc3c(c2c1=O)CCN(C)C3 |  | inactive: 24.8% |
| COc1ccc2c(c1)CC1(CN2C)C(=O)NC(=O)N(c2ccc(F)cc2)C1=O (stereo unspecified) | inconclusive: 6.51 µM [activator, partial curve, poor fit] |  |
| CN(C)CCCNS(=O)(=O)c1ccc(Cl)s1 | inconclusive: 35.5 µM [activator, single point] |  |
